# Data from PubChem BioAssay AID282 (DTP/NCI, 2004).
# The list shows only some results of the screen, not a fair sample: it gathers tests that were run many times, whatever their T/C, doses with no T/C, and many T/C values between a quarter and a half above the control. Other doses and runs of a compound stand elsewhere. T/C gives the treated animals as a percentage of the vehicle group. Some entries give survivors of the animals treated and no T/C: the source files T/C as zero there, which appears to mark a toxic dose or a test without result, not a measured value. Some doses without a T/C left all or most animals alive at the check, yet need not have been tolerated: survival well below the control is almost never listed, so the zero probably covers shortened survival too. Counts of survivors are from the toxicity check (mostly the fifth day) where no day follows; animals may have died later. Schedule codes are those of the source, taken here to give the interval after Q, in days (D) or hours (H), and the number of doses after X. Some entries were tested several times; their values stand side by side, smallest first. Some schedule codes hold Z or #, which are not explained here. For survival time, this PubChem deposit counts one and a half times the control or more as active, and values a quarter to a half above the control carry no call in these data; other NCI protocols may use other cut-offs. Some T/C values carry the count of animals alive at the toxicity check (mostly the fifth day); where none is given, no animal had died by that day.
# System: BDF1 mice, L1210 terephthalanilide-resistant leukemia ip, survival T/C
# Test: NCI In Vivo Anticancer Drug Screen. Data for tumor model L1210 Leukemia resistant to A Terephthalanilide; NSC 38280 (intraperitoneal) in B6D2F1 (BDF1) mice
# Conditions: T/C endpoint: mean survival time, higher T/C = longer survival
# Experimental: The antitumor activity of compounds was measured in mice bearing transplantable tumors. Survival or tumor size were measured and the results are expressed as the measurement made in the treated group (T) divided by the measurement made in the vehicle treated control group (C). The tumor model used in this assay is L1210 Leukemia resistant to A Terephthalanilide; NSC 38280 (intraperitoneal) in B6D2F1 (BDF1) mice
# [1] = dose: 40.0 mg/kg/injection, schedule: Q01DX010 (ip), vehicle: saline
# [2] = dose: 80.0 mg/kg/injection, schedule: Q01DX010 (ip), vehicle: saline
# [3] = dose: 160.0 mg/kg/injection, schedule: Q01DX010 (ip), vehicle: saline
# [4] = dose: 350.0 mg/kg/injection, schedule: Q01DX Z (ip), vehicle: other
# [5] = dose: 200.0 mg/kg/injection, schedule: Q01DX Z (ip), vehicle: carboxymethylcellulose (CMC)
# [6] = dose: 250.0 mg/kg/injection, schedule: Q01DX Z (ip), vehicle: carboxymethylcellulose (CMC)
# [7] = dose: 300.0 mg/kg/injection, schedule: Q01DX Z (ip), vehicle: carboxymethylcellulose (CMC)
# [8] = dose: 50.0 mg/kg/injection, schedule: Q01DX Z (ip), vehicle: carboxymethylcellulose (CMC)
# [9] = dose: 200.0 mg/kg/injection, schedule: Q01DX010 (ip), vehicle: saline
# [10] = dose: 120.0 mg/kg/injection, schedule: Q01DX010 (ip), vehicle: saline
smiles,measurement,setting,value
C[n+]1ccc(NC(=O)c2ccc(NC(=O)c3cccc(C(=O)Nc4ccc(C(=O)Nc5cc[n+](C)cc5)cc4)c3)cc2)cc1,survivor count,"dose: 10.0 mg/kg/injection, schedule: Q01DX010 (ip), vehicle: saline",7 of 7
same,survivor count,"dose: 20.0 mg/kg/injection, schedule: Q01DX010 (ip), vehicle: saline",7 of 7
same,survivor count,[1],5 of 6 and 7 of 7
same,survivor count,[2],0 of 6
same,survivor count,[3],0 of 6
CCCSc1ncnc2nc[nH]c12,T/C,"dose: 175.0 mg/kg/injection, schedule: Q01DX Z (ip), vehicle: other",136 % of control
same,survivor count,"dose: 250.0 mg/kg/injection, schedule: Q01DX010 (ip), vehicle: saline",5 of 6 and 6 of 6
same,survivor count,[4],0 of 6
C[C@H]1C(=O)O[C@@H]2CCN3CC=C(COC(=O)[C@](C)(O)[C@@]1(C)O)[C@H]23,survivor count,"dose: 6.25 mg/kg/injection, schedule: Q01DX010 (ip), vehicle: saline",6 of 6
same,T/C,[5],128 % of control
same,T/C,[6],137 % of control
same,T/C,[7],138 % of control
same,T/C,"dose: 350.0 mg/kg/injection, schedule: Q01DX Z (ip), vehicle: carboxymethylcellulose (CMC)",143 % of control
O[C@H](CN1CC1)[C@@H](O)CN1CC1,T/C,"dose: 50.0 micrograms/kg/injection, schedule: Q01DX Z (ip), vehicle: saline",145 % of control
same,T/C,"dose: 100.0 micrograms/kg/injection, schedule: Q01DX Z (ip), vehicle: saline",141 % of control
same,T/C,"dose: 250.0 micrograms/kg/injection, schedule: Q01DX010 (ip), vehicle: saline",127 % of control
Oc1cc(CN(CCCl)CCCl)c(O)cc1CN(CCCl)CCCl,T/C,"dose: 1.25 mg/kg/injection, schedule: Q01DX010 (ip), vehicle: saline",125 and 135 % of control
same,T/C,"dose: 2.0 mg/kg/injection, schedule: Q01DX Z (ip), vehicle: carboxymethylcellulose (CMC)",145 % of control [5 of 6 alive]
same,T/C,"dose: 2.5 mg/kg/injection, schedule: Q01DX010 (ip), vehicle: saline",131 and 132 % of control
same,T/C,"dose: 4.0 mg/kg/injection, schedule: Q01DX Z (ip), vehicle: carboxymethylcellulose (CMC)",134 % of control
same,survivor count,"dose: 7.5 mg/kg/injection, schedule: Q01DX Z (ip), vehicle: carboxymethylcellulose (CMC)",3 of 6
same,survivor count,"dose: 10.0 mg/kg/injection, schedule: Q01DX Z (ip), vehicle: carboxymethylcellulose (CMC)",1 of 6
same,survivor count,"dose: 15.0 mg/kg/injection, schedule: Q01DX Z (ip), vehicle: carboxymethylcellulose (CMC)",3 of 6
same,survivor count,"dose: 20.0 mg/kg/injection, schedule: Q01DX Z (ip), vehicle: carboxymethylcellulose (CMC)",4 of 6
same,survivor count,"dose: 25.0 mg/kg/injection, schedule: Q01DX Z (ip), vehicle: carboxymethylcellulose (CMC)",5 of 6
same,survivor count,[8],3 of 6
same,survivor count,"dose: 75.0 mg/kg/injection, schedule: Q01DX Z (ip), vehicle: carboxymethylcellulose (CMC)",1 of 6
same,survivor count,"dose: 100.0 mg/kg/injection, schedule: Q01DX Z (ip), vehicle: carboxymethylcellulose (CMC)",4 of 6
Clc1ncnc2nc[nH]c12,survivor count,[7],3 of 6
CCN(CC)CCNc1ccc(C)c2sc3ccccc3c(=O)c12,T/C,"dose: 50.0 mg/kg/injection, schedule: Q01DX Z (ip), vehicle: water",136 % of control
same,T/C,"dose: 100.0 mg/kg/injection, schedule: Q01DX010 (ip), vehicle: saline",133 % of control
same,survivor count,[9],6 of 6
same,survivor count,"dose: 200.0 mg/kg/injection, schedule: Q01DX Z (ip), vehicle: water",1 of 6
O=C(Nc1ccc(C2=NCCN2)cc1)c1cccc(C(=O)Nc2ccc(C3=NCCN3)cc2)c1,T/C,"dose: 64.0 mg/kg/injection, schedule: Q01DX010 (ip), vehicle: saline",125 % of control
Nc1nc(SCc2ccccc2)c2[nH]cnc2n1,T/C,"dose: 16.0 mg/kg/injection, schedule: Q01DX010 (ip), vehicle: saline",133 % of control
same,T/C,"dose: 32.0 mg/kg/injection, schedule: Q01DX010 (ip), vehicle: saline",128 % of control
same,survivor count,[6],2 of 6
same,survivor count,"dose: 500.0 mg/kg/injection, schedule: Q01DX Z (ip), vehicle: carboxymethylcellulose (CMC)",0 of 6
CN(C)/N=N/c1nc[nH]c1C(N)=O,T/C,"dose: 50.0 mg/kg/injection, schedule: Q01DX010 (ip), vehicle: saline",144 % of control
same,T/C,[9],126 % of control
CN(C)c1nc(N(C)C)nc(N(C)C)n1,survivor count,[4],5 of 6
same,survivor count,"dose: 500.0 mg/kg/injection, schedule: Q01DX Z (ip), vehicle: other",4 of 6
CN(C)c1ccc(Nc2c3ccccc3nc3ccccc23)cc1,T/C,[10],145 % of control
same,survivor count,"dose: 180.0 mg/kg/injection, schedule: Q01DX010 (ip), vehicle: saline",6 of 6
CC(CCC(C)OS(C)(=O)=O)OS(C)(=O)=O (configuration not stated),T/C,"dose: 6.25 mg/kg/injection, schedule: Q01DX Z (ip), vehicle: carboxymethylcellulose (CMC)",140 % of control
same,survivor count,[8],6 of 6
c1ccc(CCSc2ncnc3nc[nH]c23)cc1,survivor count,"dose: 500.0 mg/kg/injection, schedule: Q01DX010 (ip), vehicle: saline",6 of 6
O=C(Nc1ccc(NC2=NCCN2)cc1)c1ccc(C(=O)Nc2ccc(NC3=NCCN3)cc2)cc1,T/C,"dose: 4.0 mg/kg/injection, schedule: Q01DX010 (ip), vehicle: saline",125 % of control
Nc1ncnc2c1ccn2C1OC(CO)C(O)C1O (configuration not stated),T/C,"dose: 1.25 mg/kg/injection, schedule: Q01DX Z (ip), vehicle: carboxymethylcellulose (CMC)",134 % of control
same,survivor count,"dose: 3.75 mg/kg/injection, schedule: Q01DX Z (ip), vehicle: carboxymethylcellulose (CMC)",5 of 6
same,survivor count,"dose: 5.0 mg/kg/injection, schedule: Q01DX Z (ip), vehicle: carboxymethylcellulose (CMC)",4 of 6
CN(Cc1cnc2nc(N)nc(N)c2n1)c1ccc(C(=O)N[C@@H](CCC(=O)O)C(=O)O)cc1,T/C,"dose: 0.19 mg/kg/injection, schedule: Q01DX010 (ip), vehicle: other","123, 125 [5 of 6 alive], 126, 132 % of control"
same,T/C,"dose: 0.38 mg/kg/injection, schedule: Q01DX010 (ip), vehicle: other","136, 152, 161, 166 % of control"
same,T/C,"dose: 0.75 mg/kg/injection, schedule: Q01DX010 (ip), vehicle: other","150, 179, 182, 184 % of control"
same,T/C,"dose: 1.5 mg/kg/injection, schedule: Q01DX010 (ip), vehicle: other","174, 186, 205, 220 % of control"
same,T/C,"dose: 3.0 mg/kg/injection, schedule: Q01DX010 (ip), vehicle: other","95, 111, 121, 135 % of control"
OCC1OC(n2cnc3c(=S)nc[nH]c32)C(O)C1O (configuration not stated),T/C,[1],130 % of control
same,T/C,[2],133 and 147 % of control
same,T/C,[3],133 % of control
N[C@@H](Cc1ccc(N(CCCl)CCCl)cc1)C(=O)O,T/C,"dose: 6.0 mg/kg/injection, schedule: Q01DX Z (ip), vehicle: carboxymethylcellulose (CMC)",141 % of control
same,survivor count,"dose: 24.0 mg/kg/injection, schedule: Q01DX Z (ip), vehicle: carboxymethylcellulose (CMC)",4 of 6
same,survivor count,"dose: 36.0 mg/kg/injection, schedule: Q01DX Z (ip), vehicle: carboxymethylcellulose (CMC)",4 of 6
N#CCSc1ncnc2nc[nH]c12,T/C,[8],133 % of control
same,survivor count,[10],6 of 6
same,survivor count,[5],0 of 6
same,survivor count,"dose: 240.0 mg/kg/injection, schedule: Q01DX010 (ip), vehicle: saline",0 of 6
Nc1nc(N)c2nc(CNc3ccc(C(=O)NC(CCC(=O)O)C(=O)O)cc3)cnc2n1 (configuration not stated),T/C,"dose: 0.2 mg/kg/injection, schedule: Q01DX010 (ip), vehicle: other",125 and 138 % of control
